This passage reports binding results from paper doi:10.1101/2024.11.04.621898.

Assay [1] concerns the target T1, Flag-CNTNAP2 T1278I (human) (UniProt Q9UHC6).
T1 sequence: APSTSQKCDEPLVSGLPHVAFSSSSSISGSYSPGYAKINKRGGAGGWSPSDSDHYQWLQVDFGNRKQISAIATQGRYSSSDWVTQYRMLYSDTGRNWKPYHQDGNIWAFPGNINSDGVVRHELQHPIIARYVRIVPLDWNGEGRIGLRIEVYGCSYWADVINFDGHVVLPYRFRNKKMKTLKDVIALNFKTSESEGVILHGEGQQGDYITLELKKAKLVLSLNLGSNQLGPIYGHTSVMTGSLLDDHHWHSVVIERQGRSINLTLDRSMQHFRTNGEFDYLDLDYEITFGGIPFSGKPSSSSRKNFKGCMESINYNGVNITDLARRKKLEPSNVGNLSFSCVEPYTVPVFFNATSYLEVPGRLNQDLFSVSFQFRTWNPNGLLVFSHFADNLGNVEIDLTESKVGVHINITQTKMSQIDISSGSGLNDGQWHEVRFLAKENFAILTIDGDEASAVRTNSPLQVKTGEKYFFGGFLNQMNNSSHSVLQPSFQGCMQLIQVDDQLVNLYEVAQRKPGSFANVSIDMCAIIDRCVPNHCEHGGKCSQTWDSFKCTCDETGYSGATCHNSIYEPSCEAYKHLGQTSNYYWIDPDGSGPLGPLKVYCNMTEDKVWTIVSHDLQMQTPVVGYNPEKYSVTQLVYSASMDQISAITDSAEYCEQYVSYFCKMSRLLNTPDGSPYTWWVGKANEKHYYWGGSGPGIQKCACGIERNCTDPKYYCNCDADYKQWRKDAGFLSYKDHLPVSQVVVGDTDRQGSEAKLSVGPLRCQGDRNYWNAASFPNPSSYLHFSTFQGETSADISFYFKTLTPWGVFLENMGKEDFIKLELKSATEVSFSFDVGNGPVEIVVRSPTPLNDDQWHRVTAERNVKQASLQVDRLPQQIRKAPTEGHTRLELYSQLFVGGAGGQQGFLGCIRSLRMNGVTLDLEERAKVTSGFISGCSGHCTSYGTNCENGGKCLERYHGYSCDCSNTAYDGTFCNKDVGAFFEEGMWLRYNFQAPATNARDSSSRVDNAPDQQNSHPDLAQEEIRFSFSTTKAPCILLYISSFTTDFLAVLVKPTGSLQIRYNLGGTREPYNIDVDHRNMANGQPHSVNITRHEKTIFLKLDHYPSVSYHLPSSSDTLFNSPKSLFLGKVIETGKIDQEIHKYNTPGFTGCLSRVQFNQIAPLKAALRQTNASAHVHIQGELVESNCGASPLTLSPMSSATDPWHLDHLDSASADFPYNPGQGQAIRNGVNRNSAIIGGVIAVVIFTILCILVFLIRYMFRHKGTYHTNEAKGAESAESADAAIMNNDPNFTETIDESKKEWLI
Briefly: co-IP.

The target in assay [2] is T2, Flag-CNTNAP2-WT (human) (UniProt Q9UHC6).
T2 sequence: T1 sequence with I1251T
The assay is described as follows: co-IP.

Where a chain is given by its changes, count along the chain named. No constants are given. Whether binding was seen depends on the method and setting. Binding seen in cells or lysates may run through a third protein. A result given as binding can be weak or reduced; the word gives no strength. Sequences can lack the tags named with a protein.

Turning to HA-MMP9 (from UniProt P14780) (enzyme), the binding entry in assay [1] and in assay [2] was “binds” throughout.
